Test results from publication PMC12320973.
Substitutions are numbered along the chain they refer to. Names and notes keep the numbering of the source. No constants are given. Whether binding was seen depends on the method and setting. Binding seen in cells or lysates may run through a third protein. Binding calls can cover weak binding; strength is not graded here.

By UniProt entry, the sequences of proteins in these tests, tags left out. Where a name states a change or a piece, a line headed by the entry shows the natural chain unless it says otherwise.
UniProt Q96KP1: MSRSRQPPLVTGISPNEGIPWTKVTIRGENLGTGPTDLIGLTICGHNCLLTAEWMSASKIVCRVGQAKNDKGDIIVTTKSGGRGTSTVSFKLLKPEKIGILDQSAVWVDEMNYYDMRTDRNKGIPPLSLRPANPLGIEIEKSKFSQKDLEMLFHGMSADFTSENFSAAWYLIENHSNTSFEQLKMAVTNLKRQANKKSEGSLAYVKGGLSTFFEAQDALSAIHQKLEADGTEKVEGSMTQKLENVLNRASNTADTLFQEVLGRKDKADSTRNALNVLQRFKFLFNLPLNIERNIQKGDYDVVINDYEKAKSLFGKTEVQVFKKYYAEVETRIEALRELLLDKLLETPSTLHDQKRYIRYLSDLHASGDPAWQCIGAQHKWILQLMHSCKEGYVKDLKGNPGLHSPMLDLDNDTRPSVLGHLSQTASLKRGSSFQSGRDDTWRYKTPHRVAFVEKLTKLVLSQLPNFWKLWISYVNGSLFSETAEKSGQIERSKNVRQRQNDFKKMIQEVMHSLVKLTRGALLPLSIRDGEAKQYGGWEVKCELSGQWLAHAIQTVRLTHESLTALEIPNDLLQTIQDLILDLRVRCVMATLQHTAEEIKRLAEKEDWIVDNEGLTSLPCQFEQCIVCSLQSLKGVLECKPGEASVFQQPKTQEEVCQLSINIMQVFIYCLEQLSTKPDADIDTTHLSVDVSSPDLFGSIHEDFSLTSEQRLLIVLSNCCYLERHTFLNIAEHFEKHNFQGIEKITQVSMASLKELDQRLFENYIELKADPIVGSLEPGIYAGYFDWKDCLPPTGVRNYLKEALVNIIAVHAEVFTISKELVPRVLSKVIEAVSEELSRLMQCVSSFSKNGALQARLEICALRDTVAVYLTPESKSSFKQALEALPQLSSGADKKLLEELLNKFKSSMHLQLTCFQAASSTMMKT

B1: WT-RALA (protein, UniProt P11233 1-206)
chain: MAANKPKGQNSLALHKVIMVGSGGVGKSALTLQFMYDEFVEDYEPTKADSYRKKVVLDGEEVQIDILDTAGQEDYAAIRDNYFRSGEGFLCVFSITEMESFAATADFREQILRVKEDENVPFLLVGNKSDLEDKRQVSVEEAKNRAEQWNVNYVETSAKTRANVDKVFFDLMREIRARKMEDSKEKNGKKKRKSLAKRIRERCCIL
B2: S194A-RALA (protein, UniProt P11233 1-206)
chain: B1 chain with S194A
B3: S194D-RALA (protein, UniProt P11233 1-206)
chain: B1 chain with S194D
B4: RALB (endogenous, MCF7 and MiaPaCa2 cells) (protein, UniProt P11234 1-206)
chain: MAANKSKGQSSLALHKVIMVGSGGVGKSALTLQFMYDEFVEDYEPTKADSYRKKVVLDGEEVQIDILDTAGQEDYAAIRDNYFRSGEGFLLVFSITEHESFTATAEFREQILRVKAEEDKIPLLVVGNKSDLEERRQVPVEEARSKAEEWGVQYVETSAKTRANVDKVFFDLMREIRTKKMSENKDKNGKKSSKNKKSFKERCCLL
B5: RALA (endogenous, MCF7 and MiaPaCa2 cells) (protein, UniProt P11233 1-206)
chain: B1 chain

Target: GST-Sec5 Ral binding domain (RBD) (UniProt Q96KP1)
Assay: pull-down; GST-Sec5 RBD as bait on glutathione sepharose beads; 400 ul lysate of control, Cas9 control, RALA KO and RALA (WT/S194A/S194D) reconstituted MCF7 and MiaPaCa2 cells, with or without DMSO, DEX, 0.02 uM free MLN8237 or VMLN; western blot for RALA and RALB; only the target purified

Binder | binding
B1 | binds
B2 | binds
B3 | binds
B4 | binds
B5 | binds
